This is one part of the list.
Compound: CCCS(=O)(=O)Nc1ccc(F)c(C(=O)c2c[nH]c3ncc(Cl)cc23)c1F
Test: log2 fold change, soluble protein after heating vs DMSO (PISA); higher = thermal stabilisation; K562 cells, 10 uM, 30 min; active = over 0.2 and 3.5 SD of the protein, either way, in both replicates (recomputed)
Summary of the method: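 Quantification of soluble protein used TMTpro 16plex LC-MS/MS, with channel sums equalised. Samples were the supernatant after 21,000xg for 90 min of pooled aliquots from K562 cells (2×10^6 cells/mL) treated with 10 μM compound for 30 min, heated for 3 min over 48°C-58°C, and extracted in PBS with 0.5% NP-40 at 4°C. Values, from duplicates, describe thermal stability against control samples on a log2 fold-change scale.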

Protein sequences, listed by entry. Tags and fused reporters are not part of them. Lines headed by an entry give the natural chain unless they say otherwise; changes in a name come on top.
UniProt Q9Y2K9: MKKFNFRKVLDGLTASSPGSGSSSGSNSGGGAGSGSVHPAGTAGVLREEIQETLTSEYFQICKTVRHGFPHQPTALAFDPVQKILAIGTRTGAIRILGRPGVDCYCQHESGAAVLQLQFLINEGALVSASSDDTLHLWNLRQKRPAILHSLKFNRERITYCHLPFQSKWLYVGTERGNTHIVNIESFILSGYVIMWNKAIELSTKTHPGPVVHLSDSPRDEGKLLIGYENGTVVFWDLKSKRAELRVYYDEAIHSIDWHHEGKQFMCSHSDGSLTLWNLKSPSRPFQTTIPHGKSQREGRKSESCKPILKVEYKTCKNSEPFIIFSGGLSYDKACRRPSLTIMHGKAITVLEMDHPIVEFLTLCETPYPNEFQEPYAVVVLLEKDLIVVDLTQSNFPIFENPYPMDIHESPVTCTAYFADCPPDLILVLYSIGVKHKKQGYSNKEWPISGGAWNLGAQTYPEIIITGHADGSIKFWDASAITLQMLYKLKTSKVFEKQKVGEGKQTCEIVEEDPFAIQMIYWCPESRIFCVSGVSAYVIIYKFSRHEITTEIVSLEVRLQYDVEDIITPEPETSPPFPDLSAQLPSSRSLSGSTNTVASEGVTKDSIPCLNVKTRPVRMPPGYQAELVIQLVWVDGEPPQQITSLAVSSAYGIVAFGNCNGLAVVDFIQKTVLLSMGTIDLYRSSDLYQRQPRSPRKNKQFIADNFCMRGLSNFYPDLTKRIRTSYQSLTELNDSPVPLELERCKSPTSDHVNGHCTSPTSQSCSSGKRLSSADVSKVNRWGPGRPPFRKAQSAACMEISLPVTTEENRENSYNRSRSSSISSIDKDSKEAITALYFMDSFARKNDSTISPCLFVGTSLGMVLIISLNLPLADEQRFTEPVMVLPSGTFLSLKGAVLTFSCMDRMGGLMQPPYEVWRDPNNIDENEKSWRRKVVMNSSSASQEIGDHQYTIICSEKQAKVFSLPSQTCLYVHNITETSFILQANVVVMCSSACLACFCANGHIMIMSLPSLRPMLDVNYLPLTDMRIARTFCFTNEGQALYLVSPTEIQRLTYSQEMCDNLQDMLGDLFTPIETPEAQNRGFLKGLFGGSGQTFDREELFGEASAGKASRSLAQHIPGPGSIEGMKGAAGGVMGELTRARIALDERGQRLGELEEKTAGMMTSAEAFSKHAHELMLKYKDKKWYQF
UniProt Q13033: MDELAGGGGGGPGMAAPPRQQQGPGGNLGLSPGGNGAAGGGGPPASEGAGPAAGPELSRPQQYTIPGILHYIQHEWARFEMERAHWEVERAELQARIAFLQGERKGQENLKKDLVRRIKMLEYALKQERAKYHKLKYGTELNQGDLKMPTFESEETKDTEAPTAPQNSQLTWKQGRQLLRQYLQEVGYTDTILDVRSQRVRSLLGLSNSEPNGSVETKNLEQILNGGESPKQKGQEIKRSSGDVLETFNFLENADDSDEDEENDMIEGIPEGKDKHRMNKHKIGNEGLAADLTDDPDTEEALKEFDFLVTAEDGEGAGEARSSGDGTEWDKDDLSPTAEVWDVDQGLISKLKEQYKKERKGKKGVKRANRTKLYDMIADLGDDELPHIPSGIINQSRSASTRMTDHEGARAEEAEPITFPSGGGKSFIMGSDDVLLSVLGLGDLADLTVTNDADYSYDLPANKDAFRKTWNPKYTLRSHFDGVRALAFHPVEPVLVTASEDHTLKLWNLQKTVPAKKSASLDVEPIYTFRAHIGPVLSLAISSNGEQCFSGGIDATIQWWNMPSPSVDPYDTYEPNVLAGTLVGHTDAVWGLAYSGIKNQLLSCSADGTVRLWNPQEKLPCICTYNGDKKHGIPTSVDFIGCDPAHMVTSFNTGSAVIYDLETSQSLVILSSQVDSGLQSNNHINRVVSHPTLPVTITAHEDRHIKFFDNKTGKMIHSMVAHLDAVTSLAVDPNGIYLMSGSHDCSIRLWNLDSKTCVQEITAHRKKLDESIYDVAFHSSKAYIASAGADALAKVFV
UniProt Q9Y2Z0: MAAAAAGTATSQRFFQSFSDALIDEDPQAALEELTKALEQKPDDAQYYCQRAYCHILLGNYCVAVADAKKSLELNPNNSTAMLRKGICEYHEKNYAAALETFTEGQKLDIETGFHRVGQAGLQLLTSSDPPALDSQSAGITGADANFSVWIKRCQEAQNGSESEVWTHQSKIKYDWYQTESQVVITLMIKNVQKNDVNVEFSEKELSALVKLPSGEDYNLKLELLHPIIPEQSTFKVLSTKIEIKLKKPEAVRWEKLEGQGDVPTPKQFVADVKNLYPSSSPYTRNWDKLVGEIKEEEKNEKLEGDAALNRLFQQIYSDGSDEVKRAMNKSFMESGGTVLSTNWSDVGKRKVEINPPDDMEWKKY
UniProt Q93075: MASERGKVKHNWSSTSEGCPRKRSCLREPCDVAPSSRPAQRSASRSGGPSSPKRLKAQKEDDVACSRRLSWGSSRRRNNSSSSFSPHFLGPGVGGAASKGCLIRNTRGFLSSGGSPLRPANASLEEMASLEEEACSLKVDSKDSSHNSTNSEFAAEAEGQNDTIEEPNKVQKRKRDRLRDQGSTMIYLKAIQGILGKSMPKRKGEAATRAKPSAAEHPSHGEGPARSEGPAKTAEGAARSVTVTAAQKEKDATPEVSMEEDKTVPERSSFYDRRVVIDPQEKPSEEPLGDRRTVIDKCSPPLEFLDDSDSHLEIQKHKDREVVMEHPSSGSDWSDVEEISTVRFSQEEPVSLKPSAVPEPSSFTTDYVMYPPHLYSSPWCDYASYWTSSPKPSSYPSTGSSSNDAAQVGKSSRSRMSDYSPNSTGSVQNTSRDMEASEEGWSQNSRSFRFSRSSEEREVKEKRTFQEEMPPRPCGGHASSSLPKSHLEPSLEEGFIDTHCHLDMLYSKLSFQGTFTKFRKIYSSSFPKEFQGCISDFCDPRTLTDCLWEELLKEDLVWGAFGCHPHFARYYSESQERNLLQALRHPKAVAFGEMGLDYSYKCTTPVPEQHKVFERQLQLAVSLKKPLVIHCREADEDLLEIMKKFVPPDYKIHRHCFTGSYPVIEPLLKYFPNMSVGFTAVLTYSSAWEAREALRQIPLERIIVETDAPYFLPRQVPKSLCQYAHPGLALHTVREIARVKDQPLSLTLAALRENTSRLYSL
UniProt O60347: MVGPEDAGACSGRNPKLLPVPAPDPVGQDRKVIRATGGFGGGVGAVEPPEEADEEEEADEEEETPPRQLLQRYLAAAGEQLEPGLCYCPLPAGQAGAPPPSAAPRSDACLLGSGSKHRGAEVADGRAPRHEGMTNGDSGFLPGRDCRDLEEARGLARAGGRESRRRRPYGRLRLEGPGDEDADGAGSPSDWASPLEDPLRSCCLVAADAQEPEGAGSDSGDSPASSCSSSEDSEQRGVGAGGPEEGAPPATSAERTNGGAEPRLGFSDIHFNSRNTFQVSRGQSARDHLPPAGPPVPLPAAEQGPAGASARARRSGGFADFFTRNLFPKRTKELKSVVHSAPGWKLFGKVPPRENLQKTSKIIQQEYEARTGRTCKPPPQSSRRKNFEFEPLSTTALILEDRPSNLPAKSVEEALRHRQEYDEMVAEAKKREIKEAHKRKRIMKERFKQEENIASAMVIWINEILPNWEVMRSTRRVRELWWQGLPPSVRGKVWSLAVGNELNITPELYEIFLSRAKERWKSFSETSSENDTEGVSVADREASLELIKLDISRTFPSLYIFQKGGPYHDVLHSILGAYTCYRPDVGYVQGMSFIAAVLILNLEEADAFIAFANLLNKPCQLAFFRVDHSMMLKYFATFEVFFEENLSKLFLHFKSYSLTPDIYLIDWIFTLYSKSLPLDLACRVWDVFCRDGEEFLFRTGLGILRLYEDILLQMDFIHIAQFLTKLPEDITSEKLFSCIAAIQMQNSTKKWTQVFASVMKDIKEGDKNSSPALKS
UniProt Q8TDR2: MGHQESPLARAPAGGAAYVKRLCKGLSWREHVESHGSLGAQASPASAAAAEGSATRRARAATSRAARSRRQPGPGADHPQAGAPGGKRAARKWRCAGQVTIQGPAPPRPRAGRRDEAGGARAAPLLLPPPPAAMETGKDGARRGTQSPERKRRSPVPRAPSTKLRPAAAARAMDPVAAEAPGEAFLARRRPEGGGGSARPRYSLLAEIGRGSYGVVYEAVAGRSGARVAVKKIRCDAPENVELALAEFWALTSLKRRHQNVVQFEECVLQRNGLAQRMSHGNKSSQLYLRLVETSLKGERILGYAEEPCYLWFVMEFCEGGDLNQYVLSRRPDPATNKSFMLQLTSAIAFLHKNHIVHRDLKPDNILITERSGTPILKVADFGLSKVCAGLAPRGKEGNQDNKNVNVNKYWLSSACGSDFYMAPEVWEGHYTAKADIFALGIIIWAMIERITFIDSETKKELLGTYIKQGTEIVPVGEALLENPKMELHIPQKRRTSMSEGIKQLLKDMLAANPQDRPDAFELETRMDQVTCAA
UniProt Q16514: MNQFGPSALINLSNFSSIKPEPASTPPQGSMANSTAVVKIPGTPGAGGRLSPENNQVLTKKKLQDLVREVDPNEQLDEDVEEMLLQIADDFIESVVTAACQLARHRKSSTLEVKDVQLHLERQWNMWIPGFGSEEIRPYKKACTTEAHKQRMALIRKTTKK
UniProt P08842: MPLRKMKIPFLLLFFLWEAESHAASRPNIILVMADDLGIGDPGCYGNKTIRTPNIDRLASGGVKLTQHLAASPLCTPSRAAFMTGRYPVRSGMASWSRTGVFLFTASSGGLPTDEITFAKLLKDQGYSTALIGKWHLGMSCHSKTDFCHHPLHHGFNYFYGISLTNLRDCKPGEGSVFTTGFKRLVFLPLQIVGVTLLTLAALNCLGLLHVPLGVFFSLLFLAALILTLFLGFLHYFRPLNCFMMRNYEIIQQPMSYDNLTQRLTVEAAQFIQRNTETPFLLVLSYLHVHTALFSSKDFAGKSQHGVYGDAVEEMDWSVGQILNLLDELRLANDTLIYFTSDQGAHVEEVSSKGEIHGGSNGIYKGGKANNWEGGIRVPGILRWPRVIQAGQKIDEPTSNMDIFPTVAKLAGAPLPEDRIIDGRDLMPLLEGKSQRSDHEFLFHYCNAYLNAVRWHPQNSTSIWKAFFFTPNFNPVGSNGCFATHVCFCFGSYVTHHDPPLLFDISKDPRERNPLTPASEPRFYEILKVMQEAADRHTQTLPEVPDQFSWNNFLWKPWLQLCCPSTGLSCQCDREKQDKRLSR
UniProt Q9UL54: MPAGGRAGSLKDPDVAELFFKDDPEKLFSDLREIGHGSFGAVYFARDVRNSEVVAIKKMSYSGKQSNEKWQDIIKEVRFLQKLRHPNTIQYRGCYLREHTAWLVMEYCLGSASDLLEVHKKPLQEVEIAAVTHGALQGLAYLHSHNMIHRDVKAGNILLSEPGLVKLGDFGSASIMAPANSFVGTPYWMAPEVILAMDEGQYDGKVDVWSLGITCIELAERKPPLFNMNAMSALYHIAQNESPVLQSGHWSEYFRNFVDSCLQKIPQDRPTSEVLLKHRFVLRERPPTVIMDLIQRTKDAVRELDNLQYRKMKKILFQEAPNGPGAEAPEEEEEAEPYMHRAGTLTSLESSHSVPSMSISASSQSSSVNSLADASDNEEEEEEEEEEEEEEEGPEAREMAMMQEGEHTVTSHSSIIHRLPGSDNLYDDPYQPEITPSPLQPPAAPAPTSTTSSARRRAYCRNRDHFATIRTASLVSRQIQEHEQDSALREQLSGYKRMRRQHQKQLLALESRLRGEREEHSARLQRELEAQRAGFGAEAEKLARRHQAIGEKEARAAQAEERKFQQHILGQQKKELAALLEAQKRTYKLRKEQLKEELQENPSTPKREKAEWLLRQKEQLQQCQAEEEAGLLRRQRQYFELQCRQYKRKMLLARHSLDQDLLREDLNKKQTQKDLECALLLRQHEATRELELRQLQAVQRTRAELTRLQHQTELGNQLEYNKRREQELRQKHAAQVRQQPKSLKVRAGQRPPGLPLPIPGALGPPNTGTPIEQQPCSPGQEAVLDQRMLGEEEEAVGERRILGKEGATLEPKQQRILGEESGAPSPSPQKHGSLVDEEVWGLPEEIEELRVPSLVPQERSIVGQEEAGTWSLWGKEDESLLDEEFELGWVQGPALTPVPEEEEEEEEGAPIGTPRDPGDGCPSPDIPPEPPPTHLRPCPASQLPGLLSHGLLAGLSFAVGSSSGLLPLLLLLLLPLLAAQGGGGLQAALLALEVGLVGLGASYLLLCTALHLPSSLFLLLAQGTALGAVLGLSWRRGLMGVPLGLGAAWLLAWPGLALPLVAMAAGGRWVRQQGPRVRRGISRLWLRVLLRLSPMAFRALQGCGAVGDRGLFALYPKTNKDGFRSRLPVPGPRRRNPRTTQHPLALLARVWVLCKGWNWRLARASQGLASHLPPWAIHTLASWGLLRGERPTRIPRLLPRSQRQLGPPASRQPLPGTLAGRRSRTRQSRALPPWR
UniProt Q01995: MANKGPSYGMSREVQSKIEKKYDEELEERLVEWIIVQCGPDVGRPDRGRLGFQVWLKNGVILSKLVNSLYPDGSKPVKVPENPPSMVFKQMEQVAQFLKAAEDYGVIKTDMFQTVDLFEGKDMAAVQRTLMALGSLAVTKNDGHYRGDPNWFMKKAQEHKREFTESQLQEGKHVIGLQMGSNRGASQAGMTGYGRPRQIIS

log2 fold change, inactive:
STXBP5L (UniProt Q9Y2K9) 0.056
SYP (UniProt P08247) -0.095
STK36 (UniProt Q9NRP7) -0.117
TBC1D10A (UniProt Q9BXI6) -0.054
SUZ12 (UniProt Q15022) -0.015
STK40 isoform 4 (UniProt Q8N2I9) 0.05
STRN3 isoform 2 (UniProt Q13033) -0.115
TAZ (UniProt Q16635) -0.173
SYK (UniProt P43405) -0.058
SUGT1 isoform 2 (UniProt Q9Y2Z0) -0.071
TATDN2 (UniProt Q93075) 0.019
TBC1D12 (UniProt O60347) 0.016
SUSD1 isoform 2 (UniProt Q6UWL2) -0.102
SYS1 (UniProt Q8N2H4) -0.008
STK35 (UniProt Q8TDR2) -0.234
TATDN1 isoform 2 (UniProt Q6P1N9) -0.224
TADA1 (UniProt Q96BN2) -0.012
SYTL4 (UniProt Q96C24) -0.034
TAF12 (UniProt Q16514) -0.015
STS (UniProt P08842) -0.241
TAOK2 (UniProt Q9UL54) 0.051
SWI5 (UniProt Q1ZZU3) 0.02
TAGLN (UniProt Q01995) -0.427

2 entries picked at random from the list so far, as already listed:
log2 fold change, inactive:
TAGLN (UniProt Q01995) -0.427
STK35 (UniProt Q8TDR2) -0.234

— the supplement of paper PMC10849652
